PubChem BioAssay AID1159578 – Peter MacCallum Cancer Centre, 2015

Aim: 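Genome-wide hunt for genes controlling movement of lymphatic endothelial cells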 (primary screen)
Cell system: human lymphatic endothelial cells
Reagents: siRNA pool against human genes, 40 nM
Duration: 48 h after transfection
Read-out: 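Cells stained with dye and imaged after a scratch; covered wound area and nuclei counted, duplicates averaged, migration set against mock wells and turned into a robust z-score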
Reading the numbers: migration robust z-score: higher = faster migration into the scratch; nuclei per well: higher = more cells in the well
Hit rule: 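Migration changed when robust z exceeds 2 or falls below -2 and mean nuclei number is at least 3300; otherwise not called changed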
Calls: active = migration changed; inactive = no migration change, or too few cells
Here is an unselected part of about 18,000 reagents. Over the whole deposit, about 1,030 (5.7%) are marked active. 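Inactive calls also include pools with fewer than 3300 nuclei, whose migration was not assessed.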 Raw values vary from plate to plate and are shown uncorrected. Further read-outs or replicates are left out here. No sequences are given here.

Against SLC27A3 [SID255355512] the deposit lists migration robust z-score -1.53; nuclei per well, duplicate mean 6761; inactive.
With knock-down of ALK (ALK receptor tyrosine kinase) [SID255348273] the results were migration robust z-score -2.31; nuclei per well, duplicate mean 4854; active.
With knock-down of HERC3 (HECT and RLD domain containing E3 ubiquitin protein ligase 3) [SID255353920] the results were migration robust z-score -1.71; nuclei per well, duplicate mean 5866; inactive.
TMEM116 (transmembrane protein 116) [SID255361765] gave migration robust z-score -0.01; nuclei per well, duplicate mean 6146; inactive.
After knock-down of KCNJ5-AS1 (KCNJ5 antisense RNA 1) [SID255364199], the screen gave migration robust z-score -0.76; nuclei per well, duplicate mean 5653; inactive.
For CCT8L1P (chaperonin containing TCP1 subunit 8 like 1, pseudogene) [SID255363612] the deposit lists migration robust z-score -0.7; nuclei per well, duplicate mean 5864; inactive.
Silencing of NELFA (negative elongation factor complex member A) [SID255353132] gave: migration robust z-score 0.2; nuclei per well, duplicate mean 6666; inactive.
Against ECHDC2 (enoyl-CoA hydratase domain containing 2) [SID255358552] the deposit lists migration robust z-score 1.36; nuclei per well, duplicate mean 5744; inactive.
Against GZMH (granzyme H) [SID255350117] the deposit lists migration robust z-score 1.43; nuclei per well, duplicate mean 6283; inactive.
For FABP7 (fatty acid binding protein 7) [SID255349614], the values are migration robust z-score 0.36; nuclei per well, duplicate mean 5168; inactive.
CYP4F22 (cytochrome P450 family 4 subfamily F member 22) [SID255362714] scored migration robust z-score 0.38; nuclei per well, duplicate mean 6262; inactive.
Depletion of PDLIM3 (PDZ and LIM domain 3) [SID255357014] came out at: migration robust z-score -0.08; nuclei per well, duplicate mean 5766; inactive.
For DACT2 (dishevelled binding antagonist of beta catenin 2) [SID255363863], the entry reads migration robust z-score 0.66; nuclei per well, duplicate mean 4878; inactive.
For TRIP13 (thyroid hormone receptor interactor 13) [SID255354186], the entry reads migration robust z-score -0.7; nuclei per well, duplicate mean 6330; inactive.

Part of the list above, set out differently:
gene | PubChem SID | migration robust z-score | nuclei per well, duplicate mean | Outcome
NELFA (negative elongation factor complex member A) | SID255353132 | 0.2 | 6666 | inactive
ECHDC2 (enoyl-CoA hydratase domain containing 2) | SID255358552 | 1.36 | 5744 | inactive
